Test results: patent US7429557B2, “Replacement solvents having improved properties and methods of using the same” (Mainstream Engineering Corporation, priority 2005, dated 2008)

Key:
[1] = Elastomer compatibility
[2] = Coated metal coupon cleaning, gravimetric; details: in words
Procedure: (§1) A sample comprising 25 volume percent (A.) 4-bromo-3-chloro-3,4,4-trifluoro-1-butene and 75 volume percent (B.) 1-chloro-2,2,2-trifluoroethyl difluoromethyl ether was added to several beakers, each containing a metal coupon completely coated with one of the following materials: Mil Spec 83282 hydraulic oil, Mil Spec 7808 engine oil, Krytox fluorocarbon grease and Mil Spec 81322 aviation grease. Two batches were subjected to 15 minute immersion with 15 mL of solvent mixture but one was exposed to ultrasonic vibrations and the other kept static. Afterwards, the coupons were removed and weighed for gravimetric analysis.
as §1, with “50” for “25”, “50” for “75”
Two batches were subjected to 15 minute immersion with 15 mL of solvent mixture but one was exposed to ultrasonic vibrations and the other kept static. Afterwards, the coupons were removed and weighed for gravimetric analysis.

[3] = Autogenous ignition temperature, ASTM G72; details: ASTM method G72
[4] = Ignition sensitivity to mechanical impact in liquid oxygen, ASTM G86; details: ASTM G86 pass/fail
[5] = Solvency with oxygen handling system contaminant; details: in words, relative to CFC-113

Structure (SMILES) | solvency of Mil-spec 7808 engine oil [2] | solvency of Mil-spec 83232 hydraulic fluid [2] | AIT category [3] | ignition sensitivity to mechanical impact in liquid oxygen [4] | solvency performance with Jet Lube [5] | further results
C=CC(F)(Cl)C(F)(F)Br (stereo not drawn) [A, 4-bromo-3-chloro-3,4,4-trifluoro-1-butene] | excellent solvency | excellent solvency | B or C | does not pass |  | effect on Viton and Neoprene [1]: significantly affected; ignition sensitivity to mechanical impact in liquid oxygen ([4]; listed as 4-bromo-3-chloro-3,4,4-trifluoro-1-butene): did not pass
FC(F)(Cl)C(F)(Cl)Cl [CFC-113, 1,1,2-trichloro-1,2,2-trifluoroethane] |  |  |  |  |  | effect on Viton and Neoprene [1]: significantly affected
FC(F)OC(Cl)C(F)(F)F (stereo not drawn) [Compound B, 1-chloro-2,2,2 trifluoroethyl difluoromethyl ether] | provides solvency | provides solvency | B or C | passed | poor performance | 
FC(F)OC(F)(F)C(F)Cl (stereo not drawn) [Compound C, 2-chloro-1,1,2-trifluoroethyl difluoromethyl ether] | provides solvency | provides solvency | B or C | passed | poor performance | 
FC(F)(F)C(=CBr)C(F)(F)F [D, 1-bromo-2-(trifluoromethyl)-3,3,3-trifluoropropene] |  |  | B or C |  |  | 
COC(C(F)(F)F)C(F)(F)F [E, methyl 2,2,2-trifluoroethyl-1-(trifluoromethyl)ether] |  |  | B or C | passed |  | 
CCOC(F)(F)C(F)(F)C(F)(F)C(F)(F)F [ethyl-perfluorobutyl ether] |  |  |  |  |  | solvency performance with Jet Lube ([5]; listed as CH3—CH2—O—(CF2)3—CF3): poor performance; solvency performance with Jet Lube ([5]; listed as ethyl nonafluorobutyl ether): inferior to that of CFC-113
FC(OC(F)(F)C(F)(F)C(F)(F)F)C(F)(F)F (stereo not drawn) [heptafluoropropyl 1,2,2,2-tetrafluoroethyl ether] |  |  |  |  | poor performance | 
COC(F)(F)C(F)(F)C(F)(F)C(F)(F)F [methyl perfluorobutyl ether] |  |  |  |  | poor performance | 
